Results are given in words; binding and its absence hold for the method and conditions named. Binding seen in cells or lysates may run through a third protein. Some binding calls cover weakened binding; strength is not graded here. For part of these data: Tags and fused reporters may be left off the sequences shown.
Key:
[1] = biological target: cyclin-dependent kinase 1 (CDK1), endogenous (human (endogenous in HCT116)) (UniProt P06493); test: co-IP; endogenous proteins in HCT116 lysate; immunoprecipitation with specific antibody, normal IgG as control; immunoblotting
[2] = biological target: CCNB1 (endogenous) (human (endogenous in HCT116)) (UniProt P14635); test: as above
CDH1 = CDH1 (UniProt Q9UM11); test: co-IP; transiently transfected HCT116 cells; RIPA lysis buffer with protease inhibitor; indicated antibody (1 ug/ml) and protein G-sepharose; immunoblotting; in Figure 5g cells with control or CDC20-specific siRNA
CDC20 = CDC20 (UniProt Q12834); test: as above
FBW7 = FBW7 (UniProt Q969H0); test: as above
Flag-tagged CCNB1 = Flag-tagged CCNB1 (UniProt P14635); test: as above

By UniProt entry, the sequences of proteins in these tests, tags left out.
UniProt P06493: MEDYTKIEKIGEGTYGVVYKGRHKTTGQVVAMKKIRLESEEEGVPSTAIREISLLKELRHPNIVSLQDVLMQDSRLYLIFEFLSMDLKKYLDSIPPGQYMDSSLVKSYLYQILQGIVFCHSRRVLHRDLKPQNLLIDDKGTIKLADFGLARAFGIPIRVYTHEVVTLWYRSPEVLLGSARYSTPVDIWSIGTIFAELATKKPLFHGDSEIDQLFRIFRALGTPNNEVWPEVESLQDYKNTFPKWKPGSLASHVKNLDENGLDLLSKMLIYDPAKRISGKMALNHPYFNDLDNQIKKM
UniProt P14635: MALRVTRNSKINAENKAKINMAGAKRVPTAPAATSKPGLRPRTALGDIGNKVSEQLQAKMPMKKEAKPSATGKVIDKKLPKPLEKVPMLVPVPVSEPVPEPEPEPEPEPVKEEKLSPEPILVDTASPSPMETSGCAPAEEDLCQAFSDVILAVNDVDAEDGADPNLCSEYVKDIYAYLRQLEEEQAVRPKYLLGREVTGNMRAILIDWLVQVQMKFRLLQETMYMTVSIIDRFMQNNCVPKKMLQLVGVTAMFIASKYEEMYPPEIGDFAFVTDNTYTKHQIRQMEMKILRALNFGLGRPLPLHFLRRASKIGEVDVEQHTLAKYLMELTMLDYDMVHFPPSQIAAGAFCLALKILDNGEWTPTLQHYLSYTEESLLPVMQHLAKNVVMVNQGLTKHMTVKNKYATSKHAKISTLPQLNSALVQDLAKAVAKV
UniProt Q9UM11: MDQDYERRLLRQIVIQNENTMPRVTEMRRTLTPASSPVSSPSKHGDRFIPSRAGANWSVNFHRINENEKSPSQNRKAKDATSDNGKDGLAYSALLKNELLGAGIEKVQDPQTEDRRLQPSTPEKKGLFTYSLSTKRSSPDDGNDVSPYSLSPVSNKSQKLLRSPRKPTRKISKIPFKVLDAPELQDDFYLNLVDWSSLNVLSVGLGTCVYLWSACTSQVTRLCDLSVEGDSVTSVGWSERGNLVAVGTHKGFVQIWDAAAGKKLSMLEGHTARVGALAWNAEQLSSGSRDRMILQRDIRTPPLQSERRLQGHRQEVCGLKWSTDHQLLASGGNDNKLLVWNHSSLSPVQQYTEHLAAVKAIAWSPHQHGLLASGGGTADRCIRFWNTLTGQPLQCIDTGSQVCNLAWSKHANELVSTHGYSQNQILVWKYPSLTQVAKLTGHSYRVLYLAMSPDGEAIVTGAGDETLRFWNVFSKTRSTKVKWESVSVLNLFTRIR
UniProt Q12834: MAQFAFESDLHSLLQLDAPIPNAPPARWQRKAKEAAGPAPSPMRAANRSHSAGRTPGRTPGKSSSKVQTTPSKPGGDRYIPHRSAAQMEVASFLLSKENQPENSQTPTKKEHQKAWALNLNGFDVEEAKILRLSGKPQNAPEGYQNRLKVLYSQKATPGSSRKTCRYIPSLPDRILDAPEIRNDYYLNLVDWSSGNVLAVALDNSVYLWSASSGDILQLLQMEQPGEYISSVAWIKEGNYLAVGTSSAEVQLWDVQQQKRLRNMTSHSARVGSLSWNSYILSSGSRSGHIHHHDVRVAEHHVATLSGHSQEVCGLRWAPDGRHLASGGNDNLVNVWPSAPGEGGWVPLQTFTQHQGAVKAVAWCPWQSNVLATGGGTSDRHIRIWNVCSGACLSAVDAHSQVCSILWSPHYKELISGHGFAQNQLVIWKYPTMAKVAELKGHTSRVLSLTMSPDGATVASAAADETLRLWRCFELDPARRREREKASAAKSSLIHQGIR
UniProt Q969H0: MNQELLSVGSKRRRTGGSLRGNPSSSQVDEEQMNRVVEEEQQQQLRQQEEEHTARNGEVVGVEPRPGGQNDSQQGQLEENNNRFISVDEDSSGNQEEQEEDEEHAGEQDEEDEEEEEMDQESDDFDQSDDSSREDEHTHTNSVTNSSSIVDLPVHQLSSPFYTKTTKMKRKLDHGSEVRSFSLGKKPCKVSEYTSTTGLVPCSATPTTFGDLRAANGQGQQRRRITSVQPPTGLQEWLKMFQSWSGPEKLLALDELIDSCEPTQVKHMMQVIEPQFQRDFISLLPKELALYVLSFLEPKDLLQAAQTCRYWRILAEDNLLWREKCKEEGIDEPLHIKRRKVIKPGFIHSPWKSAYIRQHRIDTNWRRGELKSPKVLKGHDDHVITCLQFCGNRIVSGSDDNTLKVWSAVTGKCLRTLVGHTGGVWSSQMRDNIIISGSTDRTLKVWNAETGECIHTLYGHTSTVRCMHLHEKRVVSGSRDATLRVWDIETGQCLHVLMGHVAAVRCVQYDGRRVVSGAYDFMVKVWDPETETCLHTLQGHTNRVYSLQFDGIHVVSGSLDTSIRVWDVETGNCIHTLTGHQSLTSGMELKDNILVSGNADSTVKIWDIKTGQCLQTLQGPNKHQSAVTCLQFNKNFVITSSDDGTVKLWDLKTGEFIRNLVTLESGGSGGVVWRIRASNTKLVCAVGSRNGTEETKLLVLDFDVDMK

| binding [1] | binding [2] | binding (CDH1) | binding (CDC20) | binding (FBW7) | binding (Flag-tagged CCNB1) | Binder |
| --- | --- | --- | --- | --- | --- | --- |
| binds | binds | – | – | – | – | USP22 (endogenous) (enzyme, UniProt Q9UPT9 1-525) MVSRPEPEGEAMDAELAVAPPGCSHLGSFKVDNWKQNLRAIYQCFVWSGTAEARKRKAKSCICHVCGVHLNRLHSCLYCVFFGCFTKKHIHEHAKAKRHNLAIDLMYGGIYCFLCQDYIYDKDMEIIAKEEQRKAWKMQGVGEKFSTWEPTKRELELLKHNPKRRKITSNCTIGLRGLINLGNTCFMNCIVQALTHTPLLRDFFLSDRHRCEMQSPSSCLVCEMSSLFQEFYSGHRSPHIPYKLLHLVWTHARHLAGYEQQDAHEFLIAALDVLHRHCKGDDNGKKANNPNHCNCIIDQIFTGGLQSDVTCQVCHGVSTTIDPFWDISLDLPGSSTPFWPLSPGSEGNVVNGESHVSGTTTLTDCLRRFTRPEHLGSSAKIKCSGCHSYQESTKQLTMKKLPIVACFHLKRFEHSAKLRRKITTYVSFPLELDMTPFMASSKESRMNGQYQQPTDSLNNDNKYSLFAVVNHQGTLESGHYTSFIRQHKDQWFKCDDAIITKASIKDVLDSEGYLLFYHKQFLEYE |
| – | – | no binding | binds | no binding | binds | Myc-USP22 (enzyme, UniProt Q9UPT9 1-525) MVSRPEPEGEAMDAELAVAPPGCSHLGSFKVDNWKQNLRAIYQCFVWSGTAEARKRKAKSCICHVCGVHLNRLHSCLYCVFFGCFTKKHIHEHAKAKRHNLAIDLMYGGIYCFLCQDYIYDKDMEIIAKEEQRKAWKMQGVGEKFSTWEPTKRELELLKHNPKRRKITSNCTIGLRGLINLGNTCFMNCIVQALTHTPLLRDFFLSDRHRCEMQSPSSCLVCEMSSLFQEFYSGHRSPHIPYKLLHLVWTHARHLAGYEQQDAHEFLIAALDVLHRHCKGDDNGKKANNPNHCNCIIDQIFTGGLQSDVTCQVCHGVSTTIDPFWDISLDLPGSSTPFWPLSPGSEGNVVNGESHVSGTTTLTDCLRRFTRPEHLGSSAKIKCSGCHSYQESTKQLTMKKLPIVACFHLKRFEHSAKLRRKITTYVSFPLELDMTPFMASSKESRMNGQYQQPTDSLNNDNKYSLFAVVNHQGTLESGHYTSFIRQHKDQWFKCDDAIITKASIKDVLDSEGYLLFYHKQFLEYE |
